# Laboratory results reported in US7312323B2, “Enzymes and polynucleotides encoding the same” (The Horticulture and Food Research Institute of New Zealand …, priority 2002, dated 2007).
# System: A. deliciosa flowers
# Experiment: Volatiles and pentane extracts of kiwifruit flowers, GC-FID/MS
# Design: species or system Actinidia deliciosa
# Details: for content in pentane extracts of flowers: flowers harvested 2000, pentane extract
Structure (SMILES),"average concentration in headspace of flowers (A. deliciosa 'Hayward' flowers, headspace on Chromosorb 105)",content in pentane extracts of flowers
"C=C1C=CC(C(C)C)CCC(C)=CCC1 (stereo not shown) [Germacrene D, 7-iso-propyl-10-methyl-4-methylene-cyclodeca-5,10-diene]",0.68 ng/g of petal tissue,592 ng/g
C=C/C(C)=C/C/C=C(\C)CCC=C(C)C [alpha-farnesene],–,23669 ng/g
C=C[C@]1(C)CC[C@@H](C(C)(C)O)C[C@H]1C(=C)C [Elemol],–,3353 ng/g
